Measured data: PubChem BioAssay AID1259254 (NCATS, 2017)

Purpose: 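Finding genes that stop cells copying their DNA twice in one cycle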 (primary screen)
Cell system: human HCT116 colorectal cancer cells
Reagents: single siRNA against human genes
Duration: 3 days
Detection: 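Nuclei stained with Hoechst and imaged; cell-cycle phase assigned by DNA content; G2 share scaled per plate, non-targeting siRNA 0%, GMNN siRNA 100%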
Direction: G2 robust z-score and G2 cells, % of GMNN control: higher = more G2 cells, more excess DNA replication
Hit rule: 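Active siRNAs have a G2 robust z of 5 or more median absolute deviations over the median, which in these data means about 38% or higher of GMNN control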
The deposit covers about 59,000 reagents; this is an unselected part. Of all reagents, about 1,550 (2.6%) were called active. 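G2 share is only a proxy for re-replication; each gene was hit by three separate siRNAs, and active genes were retested.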 Reagents against one gene are numbered here. Further read-outs or replicates are left out here. Not stated in the record: the amount of reagent.

no.	gene symbol	reagent	G2 robust z-score	G2 cells, % of GMNN control	Call
1	CLN8 (CLN8 transmembrane ER and ERGIC protein)	1	-0.0367	2.71	inactive
2	CLN8 (CLN8 transmembrane ER and ERGIC protein)	2	-0.384	0.264	inactive
3	CLN8 (CLN8 transmembrane ER and ERGIC protein)	3	-0.236	1.31	inactive
4	CHMP6 (charged multivesicular body protein 6)	1	-0.744	-2.27	inactive
5	CHMP6 (charged multivesicular body protein 6)	2	1.48	13.4	inactive
6	CHMP6 (charged multivesicular body protein 6)	3	-0.228	1.36	inactive
7	NDST1 (N-deacetylase and N-sulfotransferase 1)	1	0.811	8.67	inactive
8	NDST1 (N-deacetylase and N-sulfotransferase 1)	2	-0.948	-3.7	inactive
9	NDST1 (N-deacetylase and N-sulfotransferase 1)	3	-1.21	-5.54	inactive
10	FGF14-IT1 (FGF14 intronic transcript 1)	1	0.096	3.64	inactive
11	FGF14-IT1 (FGF14 intronic transcript 1)	2	3.87	30.2	inactive
12	FGF14-IT1 (FGF14 intronic transcript 1)	3	7.32	54.5	active
13	DMRT3 (doublesex and mab-3 related transcription factor 3)	1	0.898	9.28	inactive
14	DMRT3 (doublesex and mab-3 related transcription factor 3)	2	3.04	24.3	inactive
15	DMRT3 (doublesex and mab-3 related transcription factor 3)	3	0.732	8.12	inactive
16	SPTAN1 (spectrin alpha, non-erythrocytic 1)	1	-0.767	-2.43	inactive
17	SPTAN1 (spectrin alpha, non-erythrocytic 1)	2	0.953	9.67	inactive
18	SPTAN1 (spectrin alpha, non-erythrocytic 1)	3	2.19	18.4	inactive
19	ANKRD35 (ankyrin repeat domain 35)	1	-0.649	-1.6	inactive
20	ANKRD35 (ankyrin repeat domain 35)	2	0.383	5.66	inactive
21	ANKRD35 (ankyrin repeat domain 35)	3	0.487	6.4	inactive
22	LINC01235 (long independently transcribed non-coding RNA 1235)	1	-0.0165	2.85	inactive
23	LINC01235 (long independently transcribed non-coding RNA 1235)	2	-0.125	2.09	inactive
24	LINC01235 (long independently transcribed non-coding RNA 1235)	3	0.607	7.24	inactive
25	ATP2B3 (ATPase plasma membrane Ca2+ transporting 3)	1	-1.19	-5.39	inactive
26	ATP2B3 (ATPase plasma membrane Ca2+ transporting 3)	2	-1.02	-4.2	inactive
27	ATP2B3 (ATPase plasma membrane Ca2+ transporting 3)	3	1.85	16	inactive
28	SLCO6A1	1	-0.139	1.99	inactive
29	SLCO6A1	2	0.835	8.84	inactive
30	SLCO6A1	3	2.33	19.4	inactive
